Results are given in words; binding and its absence hold for the method and conditions named. Binding seen in cells or lysates may run through a third protein. Some binding calls cover weakened binding; strength is not graded here.
Columns and labels:
GST-Rab35 (mouse) [1] = biological target: GST-Rab35 (mouse) (UniProt Q6PHN9); assay: pull-down; GST-Rab35•GTP; MTM1, MTMR1 or MTMR2 co-expressed with MTMR5 (Supplementary Fig. 1d-f); only the target purified
[2] = biological target: eGFP-Rab35CA (Q67L), GTP-locked, constitutively active (mouse) (UniProt Q6PHN9); assay: co-IP; eGFP-Rab35CA or -DN captured on eGFP-Trap_MA beads from lysates of HEK293T cells co-expressing MTMR13 constructs, 24 h after transfection; 90 min at 4 °C; immunoblot
[3] = biological target: eGFP-Rab35DN (S22N), GDP-locked, dominant-negative (mouse) (UniProt Q6PHN9); assay: as above
GST-Rab1A [4] = biological target: GST-Rab1A (UniProt P62820); assay: pull-down; 100 µg GST-Rab fusion on GST-bind beads loaded with 1 mM GDP; lysates of transfected HEK293T cells; 2 h at 4 °C; immunoblot; only the target purified
GST-Rab35 (mouse) [5] = biological target: GST-Rab35 (mouse) (UniProt Q6PHN9); assay: pull-down; immobilised active GST-Rab35•GTP; lysates of HEK293T cells co-expressing eGFP-MTM1, -MTMR1 or -MTMR2 with FLAG-MTMR13; immunoblot; only the target purified
GST-Rab1A [6] = biological target: GST-Rab1A (UniProt P62820); assay: pull-down; 100 µg GST-Rab fusion on GST-bind beads loaded with 1 mM GTPγS; lysates of HEK293T cells overexpressing one tagged MTMR on its own; 2 h at 4 °C; immunoblot for eGFP or FLAG; only the target purified
GST-Rab35 (mouse) [7] = biological target: GST-Rab35 (mouse) (UniProt Q6PHN9); assay: as above
[8] = biological target: GFP-Rab35endo (endogenous Rab35 tagged with GFP in TALEN-edited knock-in HeLa cells) (human (endogenous in HeLa)) (UniProt Q15286); assay: co-IP; endogenous eGFP-Rab35 captured on eGFP-Trap_MA beads from lysates of KI HeLa cells expressing mCherry-MTMR13 or its domains; 90 min at 4 °C; immunoblot

Chains of the proteins cited; added tags and fusions are not shown. Lines headed by an entry give the natural chain unless they say otherwise; changes in a name come on top.
UniProt Q6PHN9: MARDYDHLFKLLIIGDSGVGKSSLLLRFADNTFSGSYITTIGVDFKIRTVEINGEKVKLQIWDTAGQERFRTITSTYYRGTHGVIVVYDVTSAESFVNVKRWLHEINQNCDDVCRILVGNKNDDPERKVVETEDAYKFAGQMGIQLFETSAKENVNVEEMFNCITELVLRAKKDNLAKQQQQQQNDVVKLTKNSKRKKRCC
UniProt P62820: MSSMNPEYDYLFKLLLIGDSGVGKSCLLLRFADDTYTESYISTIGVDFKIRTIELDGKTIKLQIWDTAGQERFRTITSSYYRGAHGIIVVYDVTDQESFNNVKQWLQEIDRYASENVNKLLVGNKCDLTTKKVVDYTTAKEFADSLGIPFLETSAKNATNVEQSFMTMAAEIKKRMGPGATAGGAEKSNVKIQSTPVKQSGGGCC
UniProt Q15286: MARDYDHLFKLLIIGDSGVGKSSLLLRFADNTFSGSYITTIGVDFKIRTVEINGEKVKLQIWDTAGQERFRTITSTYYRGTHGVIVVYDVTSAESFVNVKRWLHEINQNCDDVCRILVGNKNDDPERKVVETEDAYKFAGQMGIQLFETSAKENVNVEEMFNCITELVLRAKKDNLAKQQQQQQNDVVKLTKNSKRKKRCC
UniProt O95248: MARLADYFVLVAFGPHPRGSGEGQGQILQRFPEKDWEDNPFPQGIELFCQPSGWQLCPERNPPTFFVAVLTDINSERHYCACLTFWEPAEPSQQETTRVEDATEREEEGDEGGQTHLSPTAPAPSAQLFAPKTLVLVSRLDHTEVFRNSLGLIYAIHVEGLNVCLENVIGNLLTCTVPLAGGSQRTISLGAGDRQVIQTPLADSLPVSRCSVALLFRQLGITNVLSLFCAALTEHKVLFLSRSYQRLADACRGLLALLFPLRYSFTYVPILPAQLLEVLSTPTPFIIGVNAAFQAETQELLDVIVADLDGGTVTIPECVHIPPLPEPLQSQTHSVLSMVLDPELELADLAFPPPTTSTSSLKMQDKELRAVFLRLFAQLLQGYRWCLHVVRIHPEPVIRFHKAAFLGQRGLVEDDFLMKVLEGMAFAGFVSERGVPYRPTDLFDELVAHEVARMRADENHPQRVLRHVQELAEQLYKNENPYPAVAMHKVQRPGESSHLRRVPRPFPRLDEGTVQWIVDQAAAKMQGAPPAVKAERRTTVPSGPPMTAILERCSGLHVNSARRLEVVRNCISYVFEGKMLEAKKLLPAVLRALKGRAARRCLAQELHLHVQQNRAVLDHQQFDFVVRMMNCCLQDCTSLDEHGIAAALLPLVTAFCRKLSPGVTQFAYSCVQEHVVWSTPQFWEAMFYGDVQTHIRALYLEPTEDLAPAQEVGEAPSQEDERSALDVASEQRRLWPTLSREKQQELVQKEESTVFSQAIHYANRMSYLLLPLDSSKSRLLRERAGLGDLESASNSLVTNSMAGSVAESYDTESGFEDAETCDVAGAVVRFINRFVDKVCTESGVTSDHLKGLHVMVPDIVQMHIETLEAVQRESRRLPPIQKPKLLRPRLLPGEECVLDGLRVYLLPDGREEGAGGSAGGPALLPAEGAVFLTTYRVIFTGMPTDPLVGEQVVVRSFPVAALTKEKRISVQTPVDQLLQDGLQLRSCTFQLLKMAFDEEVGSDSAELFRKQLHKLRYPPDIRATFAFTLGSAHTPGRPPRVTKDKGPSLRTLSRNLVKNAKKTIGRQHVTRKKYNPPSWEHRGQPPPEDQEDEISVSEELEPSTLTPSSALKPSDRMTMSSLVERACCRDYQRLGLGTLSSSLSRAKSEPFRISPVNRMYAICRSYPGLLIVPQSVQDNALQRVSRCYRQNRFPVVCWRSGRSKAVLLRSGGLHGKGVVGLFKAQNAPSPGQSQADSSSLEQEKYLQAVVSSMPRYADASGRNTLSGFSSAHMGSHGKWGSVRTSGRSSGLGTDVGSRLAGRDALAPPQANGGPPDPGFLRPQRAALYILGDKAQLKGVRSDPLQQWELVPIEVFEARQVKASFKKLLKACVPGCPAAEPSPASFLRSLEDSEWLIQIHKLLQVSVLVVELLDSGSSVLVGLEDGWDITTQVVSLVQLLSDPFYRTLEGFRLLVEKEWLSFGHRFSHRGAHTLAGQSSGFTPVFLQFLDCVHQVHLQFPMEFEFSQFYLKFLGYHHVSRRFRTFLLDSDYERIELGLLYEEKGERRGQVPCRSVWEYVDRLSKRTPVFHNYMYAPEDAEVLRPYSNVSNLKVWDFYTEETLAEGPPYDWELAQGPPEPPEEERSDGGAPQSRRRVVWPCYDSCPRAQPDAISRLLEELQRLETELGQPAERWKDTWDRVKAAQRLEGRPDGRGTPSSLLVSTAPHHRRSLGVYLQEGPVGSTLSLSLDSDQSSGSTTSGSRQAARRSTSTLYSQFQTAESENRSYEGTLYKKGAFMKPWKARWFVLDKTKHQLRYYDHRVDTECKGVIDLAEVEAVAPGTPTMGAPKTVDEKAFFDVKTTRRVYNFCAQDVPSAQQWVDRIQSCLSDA
UniProt Q86WG5: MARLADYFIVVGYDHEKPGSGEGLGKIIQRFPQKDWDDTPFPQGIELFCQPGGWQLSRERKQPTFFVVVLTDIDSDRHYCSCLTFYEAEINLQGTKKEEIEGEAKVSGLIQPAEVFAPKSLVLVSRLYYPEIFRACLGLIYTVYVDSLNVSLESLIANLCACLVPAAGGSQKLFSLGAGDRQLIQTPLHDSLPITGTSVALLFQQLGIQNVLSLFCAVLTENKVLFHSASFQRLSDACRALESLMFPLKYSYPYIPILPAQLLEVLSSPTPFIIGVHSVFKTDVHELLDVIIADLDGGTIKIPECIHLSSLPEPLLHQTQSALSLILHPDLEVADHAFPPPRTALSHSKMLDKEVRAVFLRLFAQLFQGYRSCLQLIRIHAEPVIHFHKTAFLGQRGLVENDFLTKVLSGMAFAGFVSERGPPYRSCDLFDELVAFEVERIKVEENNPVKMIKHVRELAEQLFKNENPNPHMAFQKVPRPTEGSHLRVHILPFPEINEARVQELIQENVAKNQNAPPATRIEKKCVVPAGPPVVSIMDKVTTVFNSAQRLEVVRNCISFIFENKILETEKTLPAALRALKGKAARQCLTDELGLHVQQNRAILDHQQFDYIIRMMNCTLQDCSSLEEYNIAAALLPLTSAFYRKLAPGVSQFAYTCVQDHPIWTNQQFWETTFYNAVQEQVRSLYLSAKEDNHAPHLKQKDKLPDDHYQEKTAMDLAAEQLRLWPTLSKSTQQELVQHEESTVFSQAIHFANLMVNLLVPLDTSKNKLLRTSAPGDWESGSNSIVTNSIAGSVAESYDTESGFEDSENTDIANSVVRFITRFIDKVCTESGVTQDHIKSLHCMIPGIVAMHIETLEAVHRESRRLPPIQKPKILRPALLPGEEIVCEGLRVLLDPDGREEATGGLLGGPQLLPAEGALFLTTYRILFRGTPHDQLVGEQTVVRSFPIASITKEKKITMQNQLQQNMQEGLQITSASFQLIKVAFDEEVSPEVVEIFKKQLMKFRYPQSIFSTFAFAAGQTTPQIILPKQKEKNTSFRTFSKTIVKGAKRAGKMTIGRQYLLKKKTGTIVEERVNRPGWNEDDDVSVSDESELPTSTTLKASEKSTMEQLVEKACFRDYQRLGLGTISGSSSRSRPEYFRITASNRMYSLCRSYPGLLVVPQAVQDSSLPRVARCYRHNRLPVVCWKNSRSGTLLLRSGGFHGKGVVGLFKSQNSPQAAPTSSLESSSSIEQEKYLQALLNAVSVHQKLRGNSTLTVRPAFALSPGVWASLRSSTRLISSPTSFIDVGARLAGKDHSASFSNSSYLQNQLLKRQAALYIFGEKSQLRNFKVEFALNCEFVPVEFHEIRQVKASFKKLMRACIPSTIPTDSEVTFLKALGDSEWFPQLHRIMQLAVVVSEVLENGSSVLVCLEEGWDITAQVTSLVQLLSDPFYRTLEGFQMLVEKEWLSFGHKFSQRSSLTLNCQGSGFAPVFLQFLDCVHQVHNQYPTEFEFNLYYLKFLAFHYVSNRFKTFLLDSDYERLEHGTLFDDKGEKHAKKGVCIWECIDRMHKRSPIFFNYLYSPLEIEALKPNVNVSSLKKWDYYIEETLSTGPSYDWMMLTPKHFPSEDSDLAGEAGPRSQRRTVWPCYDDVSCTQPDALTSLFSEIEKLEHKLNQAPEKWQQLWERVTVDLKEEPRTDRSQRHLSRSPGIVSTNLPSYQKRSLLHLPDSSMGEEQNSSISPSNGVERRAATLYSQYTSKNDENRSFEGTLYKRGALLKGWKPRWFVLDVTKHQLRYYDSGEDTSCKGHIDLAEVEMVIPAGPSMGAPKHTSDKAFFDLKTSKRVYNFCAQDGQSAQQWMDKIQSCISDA

## MTMR5 co-expressed with eGFP-tagged active MTMRs (mCherry-MTMR5) (from UniProt O95248 1-1868)
GST-Rab35 (mouse) [1]
  binding: binds

## MTMR13ΔDENN (DENN-domain truncation mutant of MTMR13, aa493-1849) (from UniProt Q86WG5 493-1849) (domain or fragment)
[2]
  binding: binds
[3]
  binding: no binding

## N-terminally FLAG-tagged MTMR13 (from UniProt Q86WG5 1-1849)
GST-Rab1A [4]
  binding: no binding
GST-Rab35 (mouse) [5]
  binding: binds
GST-Rab1A [6]
  binding: no binding
GST-Rab35 (mouse) [7]
  binding: binds

## eGFP-MTMR5 (from UniProt O95248 1-1868)
GST-Rab35 (mouse) [7]
  binding: binds

## mCherry-MTMR13 (full length) (from UniProt Q86WG5 1-1849)
[8]
  binding: binds

## mCherry-tagged MTMR13 phosphatase (PTP) domain (aa1100-1591) (from UniProt Q86WG5 1100-1591) (domain or fragment)
[8]
  binding: binds
